Assay results as given in patent US7459281B2, “Docetaxel immunoassay” (Saladax Biomedical Inc., priority 2005, dated 2008).
Some of these results come from one statement about several compounds together.

Legend:
Format in all cases: binding, mouse (BALB/c)
[1] = tested on: docetaxel antibody (antiserum produced in Example 10 with C7, C10 docetaxel di-acid derivative immunogen); test: Indirect competitive microtiter plate ELISA, IC50 and cross-reactivity, antibodies to C7, C10 docetaxel di-acid derivative conjugate; conditions: selected antibody produced in Example 10 with immunogen of Example 4 and 5 (BTG, KLH)
[2] = tested on: docetaxel antibody (antiserum produced in Example 11 with C7 substituted docetaxel acid derivative immunogen); test: Indirect competitive microtiter plate ELISA, IC50 and cross-reactivity, polyclonal antibodies to C7 substituted docetaxel acid derivative conjugate; conditions: selected antiserum of Example 11 (immunogen of Example 9a or 9b), screening by Examples 14a and 16
Description: Ten Female BALB/c mice were immunized i.p. with 100 μg/mouse of docetaxel-immunogen: either docetaxel-BTG as prepared in Example 9a or docetaxel-KLH immunogen as prepared in Example 9b emulsified in Complete Freund's Adjuvant. After the initial injection mice were boosted once after four weeks with 100 μg/mouse of the same immunogen emulsified in Incomplete Freund's Adjuvant. Ten days after the boosts test bleeds from each mouse were obtained by orbital bleed. The anti-serum from the last test bleeds containing docetaxel antibodies from each of the mice were evaluated by the procedures in Examples 14a and 16 to determine their reactivity to docetaxel and their cross reactivity to 10-O-Deacytlbaccatin III and, paclitaxel [Taxol].
Antibodies were screened by Enzyme-Linked Immunosorbent Assay (ELISA) method. […] Following the incubation for color development, 50 μL of stop solution (1.5% sodium fluoride in di H2O) was added to each well to stop the color development and after 10 seconds of shaking the absorbance was determined at 650 nm with a 96-well plate reader. The amount of antibody in a well was proportional to the absorbance measured and was expressed as the dilution (titer) resulting in an absorbance of 1.5. Titers were determined by graphing log antibody dilution of the antibody measured (x-axis) vs. absorbance 650 nm (y-axis) and extrapolating the titer at an absorbance of 1.5. […]

[3] = tested on: docetaxel monoclonal antibody (produced in Example 11); test: Indirect competitive microtiter plate ELISA, IC50 and cross-reactivity, monoclonal antibodies to C7 substituted docetaxel acid derivative conjugate; conditions: selected monoclonal antibodies of Example 11
Description: For monoclonal antibodies starting […] before the fusion, the mice were injected i.p. with 400 μg (3 days before fusion), 200 μg (2 days before fusion), and 200 μg (1 day before fusion) on three successive days with either docetaxel-BTG or docetaxel-KLH (depending on the original immunogen) in PBS. According to the protocol of Coligan et al. spleen cells were isolated from the selected mice and fused with 2×10^7 cells of the myeloma fusion partner cell line (SP2/o) using 50% polyethylene glycol 1500 [Coligan, J. E. et al., eds., Current Protocols in Immunology, 2.5.1-2.5.8, (1992), Wiley & Sons, NY.] […]
Antibodies were screened by Enzyme-Linked Immunosorbent Assay (ELISA) method. […] Following the incubation for color development, 50 μL of stop solution (1.5% sodium fluoride in di H2O) was added to each well to stop the color development and after 10 seconds of shaking the absorbance was determined at 650 nm on a 96-well plate reader. The amount of antibody in a well was proportional to the absorbance measured. Samples with an absorbance of three times background or greater were designated as positive.
Docetaxel concentrations were measured by an indirect competitive Enzyme-Linked Immunosorbent Assay (ELISA) method. […]

For CC(=O)O[C@H]1C(=O)[C@@]2(C)[C@H]([C@H](OC(=O)c3ccccc3)[C@]3(O)C[C@H](OC(=O)[C@H](O)[C@@H](NC(=O)c4ccccc4)c4ccccc4)C(C)=C1C3(C)C)[C@]1(OC(C)=O)CO[C@@H]1C[C@@H]2O [Paclitaxel, paclitaxel], the “percent cross-reactivity relative to docetaxel (ratio of IC50 for docetaxel to IC50 for analyte)” value [1] was at most 6%, the “cross reactivity relative to docetaxel” value [2] was at most 6% and the “cross reactivity relative to docetaxel” value [3] was at most 15%.
